Test results from paper PMC11729909.
These are yes or no findings as the source states them, for the method shown. Binding seen in cells or lysates may run through a third protein. Some entries that bind do so weakly or less than the wild type. Where a sequence is shown, tags or fusion partners need not be part of it.

Tests used:
Assay in all cases: co-IP; HEK293T transfected with the indicated plasmids, lysed in NETN buffer, Anti-FLAG Affinity Gel 4 h at 4 °C, immunoblot; in some panels 2 mM HU, Thiamet-G, OGT siRNA, ATR inhibitors (VE-822, NU6027) or CHK1 inhibitors (Rabusertib, UCN-01)
[1] = target: T1, FLAG-tagged FOXP1 S396D (human) (UniProt Q9H334)
T1 sequence: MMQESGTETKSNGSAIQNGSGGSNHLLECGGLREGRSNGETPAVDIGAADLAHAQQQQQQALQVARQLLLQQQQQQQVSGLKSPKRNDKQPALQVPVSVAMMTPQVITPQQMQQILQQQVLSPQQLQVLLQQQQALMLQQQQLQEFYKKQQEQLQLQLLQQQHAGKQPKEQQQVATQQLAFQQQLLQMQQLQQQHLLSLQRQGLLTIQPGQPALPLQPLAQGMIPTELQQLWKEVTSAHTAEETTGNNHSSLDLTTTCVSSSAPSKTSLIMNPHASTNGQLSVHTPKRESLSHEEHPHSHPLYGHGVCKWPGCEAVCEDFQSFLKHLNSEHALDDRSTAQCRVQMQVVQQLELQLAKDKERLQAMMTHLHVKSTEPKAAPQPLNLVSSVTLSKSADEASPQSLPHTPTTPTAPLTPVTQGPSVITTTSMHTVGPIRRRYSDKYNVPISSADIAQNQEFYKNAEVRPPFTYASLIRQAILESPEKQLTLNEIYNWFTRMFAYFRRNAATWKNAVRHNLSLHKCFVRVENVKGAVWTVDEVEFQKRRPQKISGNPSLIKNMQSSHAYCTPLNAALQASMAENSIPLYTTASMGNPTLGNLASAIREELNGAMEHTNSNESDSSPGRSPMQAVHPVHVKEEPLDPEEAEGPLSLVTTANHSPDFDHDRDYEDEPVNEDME

[2] = target: T2, FLAG-tagged FOXP1 (wild type, full length) (human) (UniProt Q9H334)
T2 sequence: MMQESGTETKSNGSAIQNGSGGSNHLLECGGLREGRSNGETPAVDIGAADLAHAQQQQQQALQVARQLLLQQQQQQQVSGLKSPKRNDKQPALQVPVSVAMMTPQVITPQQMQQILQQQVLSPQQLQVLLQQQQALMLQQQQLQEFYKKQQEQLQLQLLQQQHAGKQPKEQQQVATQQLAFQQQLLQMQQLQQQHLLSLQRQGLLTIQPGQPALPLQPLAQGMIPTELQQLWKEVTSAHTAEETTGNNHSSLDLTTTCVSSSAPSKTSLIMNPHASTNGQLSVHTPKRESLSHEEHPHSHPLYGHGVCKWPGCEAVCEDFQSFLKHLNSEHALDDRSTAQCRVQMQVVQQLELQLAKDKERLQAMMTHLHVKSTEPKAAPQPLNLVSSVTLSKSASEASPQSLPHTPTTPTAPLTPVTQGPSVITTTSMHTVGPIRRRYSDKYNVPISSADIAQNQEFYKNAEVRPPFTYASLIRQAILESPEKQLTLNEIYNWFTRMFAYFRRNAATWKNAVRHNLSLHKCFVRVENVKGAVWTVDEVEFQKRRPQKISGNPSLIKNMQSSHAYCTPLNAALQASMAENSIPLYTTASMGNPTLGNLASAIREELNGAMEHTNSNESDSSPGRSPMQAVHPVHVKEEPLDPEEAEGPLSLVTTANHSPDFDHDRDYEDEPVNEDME

[3] = target: T3, FLAG-tagged FOXP1 Δ465–555 (human) (UniProt Q9H334)
T3 sequence: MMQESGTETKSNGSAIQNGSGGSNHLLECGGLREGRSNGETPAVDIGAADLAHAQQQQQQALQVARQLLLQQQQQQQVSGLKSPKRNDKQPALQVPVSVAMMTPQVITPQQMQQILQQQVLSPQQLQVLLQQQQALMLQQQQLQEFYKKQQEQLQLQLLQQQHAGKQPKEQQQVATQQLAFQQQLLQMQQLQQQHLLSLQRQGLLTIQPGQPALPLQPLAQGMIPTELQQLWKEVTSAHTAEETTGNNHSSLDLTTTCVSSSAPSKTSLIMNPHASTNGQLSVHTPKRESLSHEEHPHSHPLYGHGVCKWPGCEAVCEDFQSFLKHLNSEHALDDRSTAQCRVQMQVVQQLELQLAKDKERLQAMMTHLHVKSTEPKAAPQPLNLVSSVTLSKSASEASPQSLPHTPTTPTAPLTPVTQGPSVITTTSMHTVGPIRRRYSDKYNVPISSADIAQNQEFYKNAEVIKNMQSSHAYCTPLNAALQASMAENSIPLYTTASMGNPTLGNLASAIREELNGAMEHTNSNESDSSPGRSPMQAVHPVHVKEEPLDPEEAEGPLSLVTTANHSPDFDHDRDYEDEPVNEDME

Measured: binding

B1: GFP-tagged OGT (enzyme, UniProt O15294 1-1046)
chain: MASSVGNVADSTEPTKRMLSFQGLAELAHREYQAGDFEAAERHCMQLWRQEPDNTGVLLLLSSIHFQCRRLDRSAHFSTLAIKQNPLLAEAYSNLGNVYKERGQLQEAIEHYRHALRLKPDFIDGYINLAAALVAAGDMEGAVQAYVSALQYNPDLYCVRSDLGNLLKALGRLEEAKACYLKAIETQPNFAVAWSNLGCVFNAQGEIWLAIHHFEKAVTLDPNFLDAYINLGNVLKEARIFDRAVAAYLRALSLSPNHAVVHGNLACVYYEQGLIDLAIDTYRRAIELQPHFPDAYCNLANALKEKGSVAEAEDCYNTALRLCPTHADSLNNLANIKREQGNIEEAVRLYRKALEVFPEFAAAHSNLASVLQQQGKLQEALMHYKEAIRISPTFADAYSNMGNTLKEMQDVQGALQCYTRAIQINPAFADAHSNLASIHKDSGNIPEAIASYRTALKLKPDFPDAYCNLAHCLQIVCDWTDYDERMKKLVSIVADQLEKNRLPSVHPHHSMLYPLSHGFRKAIAERHGNLCLDKINVLHKPPYEHPKDLKLSDGRLRVGYVSSDFGNHPTSHLMQSIPGMHNPDKFEVFCYALSPDDGTNFRVKVMAEANHFIDLSQIPCNGKAADRIHQDGIHILVNMNGYTKGARNELFALRPAPIQAMWLGYPGTSGALFMDYIITDQETSPAEVAEQYSEKLAYMPHTFFIGDHANMFPHLKKKAVIDFKSNGHIYDNRIVLNGIDLKAFLDSLPDVKIVKMKCPDGGDNADSSNTALNMPVIPMNTIAEAVIEMINRGQIQITINGFSISNGLATTQINNKAATGEEVPRTIIVTTRSQYGLPEDAIVYCNFNQLYKIDPSTLQMWANILKRVPNSVLWLLRFPAVGEPNIQQYAQNMGLPQNRIIFSPVAPKEEHVRRGQLADVCLDTPLCNGHTTGMDVLWAGTPMVTMPGETLASRVAASQLTCLGCLELIAKNRQEYEDIAVKLGTDLEYLKKVRGKVWKQRISSPLFNTKQYTMELERLYLQMWEHYAAGNKPDHMIKPVEVTESA
binds: all assays above
